We go through one compound from patent US20160378912A1, “STRUCTURE-BASED MODELING AND TARGET-SELECTIVITY PREDICTION” (EPIGENETX, LLC, priority 2013, published 2016).

The subject of the test is HDAC isoforms. Kind of test: HDAC inhibition profiled over several HDAC isoforms (experimental). The format is biochemical, human. The conditions noted are these: range of pIC50 over the profiled HDAC isoforms.

In the case of `O=C(CCCCCCC(=O)Nc1ccccc1)NO` [SAHA, octanedioic acid hydroxyamidephenylamide], the “Bioactivity range (ΔpIC50) DpIC50” value was determined as 2.04.
